Reference: publication PMC7072537, “Characterization of a Novel Mannose-Binding Lectin with Antiviral Activities from Red Alga, Grateloupia chiangii” (Biomolecules, 2020)

What follows are substances tested on T1, G. chiangii lectin (GCL) (assay: glycan microarray). Details: biotinylated GCL 50 μg/mL, Cy3-equivalent streptavidin; glycan immobilised through spacer; labelled protein.
T1 construct: N-terminus VVSNRLVSGEXLHR
Format: binding, Grateloupia chiangii

Substance | RFU (Normalized) / GCL [RFU]
Gal-α-1,4-Gal-β-1,4-Glc-β-Sp [G0018] | 1124 ± 47
Gal-β-1,4-Glc-β-Sp [G0016] | 1260 ± 126
GalNAc-β-1,3-Gal-β-1,4-Glc-β-Sp [G0020] | 1092 ± 92
Glc-α-1,2-Gal-α-Sp [G0048] | 1173 ± 110
Glc-α-1,4-Glc-β-Sp1 [G0076] | 1238 ± 28
Maltoheptaose-β-Sp1 [G0083] | 8132 ± 1810
Maltohexaose-β-Sp1 [G0082] | 7524 ± 1976
Maltotetraose-β-Sp1 [G0080] | 2577 ± 351
Man-α-1,6-(Man-α-1,3-)Man-α-1,6-(Gal-β-1,4-GlcNAc-β-1,2-Man-α-1,3-)Man-β-1,4-GlcNAc-β-1,4-GlcNAc-Sp5 [N-011] | 1148 ± 173
Man-α-1,6-(Man-α-1,3-)Man-α-1,6-(GlcNAc-β-1,2-Man-α-1,3-)Man-β-1,4-GlcNAc-β-1,4-GlcNAc-Sp5 [N-010] | 1142 ± 116
Man-α-1,6-(Man-α-1,3-)Man-α-1,6-[Gal-β-1,4-(Fuc-α-1,3-)GlcNAc-β-1,2-Man-α-1,3-]Man-β-1,4-GlcNAc-β-1,4-GlcNAc-Sp5 [N-014] | 1129 ± 151
α-Man-Sp [G0003] | 2093 ± 294
β-Gal-Sp [G0002] | 2165 ± 237
β-Glc-Sp [G0001] | 2273 ± 544
β-GlcNAc-Sp [G0006] | 1104 ± 133
